What all share (test): split reporter; BiFC with NtYFP and CtYFP fragments tested on both Nt and Ct sides of each factor; transient co-expression in N. benthamiana leaves (A. tumefaciens C58, OD600 0.4) with HC-Pro; confocal microscopy at 3 days post-infiltration
Experiment [1] deals with DkWDR1 (Diospyros kaki) (UniProt V9I0L4).
Experiment [2] concerns the target DkMYC1 (Diospyros kaki).
In experiment [3] the target is T1, DkMYB2 (Diospyros kaki) (UniProt D0VYJ7).
T1 sequence: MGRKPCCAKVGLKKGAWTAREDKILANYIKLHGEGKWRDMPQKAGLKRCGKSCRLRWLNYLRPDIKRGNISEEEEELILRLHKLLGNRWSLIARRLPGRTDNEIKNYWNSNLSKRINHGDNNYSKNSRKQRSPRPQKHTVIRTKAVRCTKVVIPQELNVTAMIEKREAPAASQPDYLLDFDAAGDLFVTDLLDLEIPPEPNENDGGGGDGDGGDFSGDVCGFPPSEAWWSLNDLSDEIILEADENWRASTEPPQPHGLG

Amino acid sequences for entries named in this document (tags omitted). A change or cut given only in a name is not applied to a line headed by its entry.
UniProt V9I0L4: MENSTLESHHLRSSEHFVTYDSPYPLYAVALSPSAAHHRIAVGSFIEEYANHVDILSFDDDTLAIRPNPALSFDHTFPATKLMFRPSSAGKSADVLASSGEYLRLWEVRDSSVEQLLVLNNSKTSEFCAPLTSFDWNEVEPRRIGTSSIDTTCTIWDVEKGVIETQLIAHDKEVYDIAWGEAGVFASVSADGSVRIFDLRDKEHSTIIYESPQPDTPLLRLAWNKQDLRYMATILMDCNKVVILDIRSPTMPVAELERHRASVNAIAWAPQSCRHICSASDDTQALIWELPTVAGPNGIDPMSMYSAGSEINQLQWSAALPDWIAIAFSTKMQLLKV
UniProt D0VYJ9: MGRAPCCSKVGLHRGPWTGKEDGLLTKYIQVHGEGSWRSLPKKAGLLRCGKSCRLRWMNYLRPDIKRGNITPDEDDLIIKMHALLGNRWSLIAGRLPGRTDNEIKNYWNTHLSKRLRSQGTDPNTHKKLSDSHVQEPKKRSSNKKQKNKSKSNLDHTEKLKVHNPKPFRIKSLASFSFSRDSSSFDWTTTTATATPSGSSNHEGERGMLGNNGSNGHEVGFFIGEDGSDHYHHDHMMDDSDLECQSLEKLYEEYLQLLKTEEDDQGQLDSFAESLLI
UniProt A0A140EFM7: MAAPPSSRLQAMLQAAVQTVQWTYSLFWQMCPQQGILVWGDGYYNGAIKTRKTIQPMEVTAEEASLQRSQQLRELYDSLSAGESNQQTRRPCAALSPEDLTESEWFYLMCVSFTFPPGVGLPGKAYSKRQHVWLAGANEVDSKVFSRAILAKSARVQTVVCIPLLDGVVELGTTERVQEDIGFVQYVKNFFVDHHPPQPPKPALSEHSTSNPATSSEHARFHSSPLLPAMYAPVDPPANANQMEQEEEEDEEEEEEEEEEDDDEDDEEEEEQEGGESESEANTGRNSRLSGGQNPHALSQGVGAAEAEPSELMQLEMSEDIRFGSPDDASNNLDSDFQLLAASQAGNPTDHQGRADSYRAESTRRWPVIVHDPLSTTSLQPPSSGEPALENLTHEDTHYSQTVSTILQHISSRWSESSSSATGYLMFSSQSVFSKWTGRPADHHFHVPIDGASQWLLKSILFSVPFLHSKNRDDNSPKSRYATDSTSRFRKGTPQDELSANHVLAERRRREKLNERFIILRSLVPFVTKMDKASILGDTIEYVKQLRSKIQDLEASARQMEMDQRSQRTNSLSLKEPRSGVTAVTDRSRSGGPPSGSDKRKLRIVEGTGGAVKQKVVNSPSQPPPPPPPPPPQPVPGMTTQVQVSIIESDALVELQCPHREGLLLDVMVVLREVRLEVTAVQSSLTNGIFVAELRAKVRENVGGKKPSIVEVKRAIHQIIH

Results are given in words; binding and its absence hold for the method and conditions named. In cells and extracts the contact can be indirect. A result given as binding can be weak or reduced; the word gives no strength.

On to DkMYB4 (from UniProt D0VYJ9 1-277), for which the binding result in experiment [1] and in experiment [2] was “binds” each time. Consider DkMYC1 (from UniProt A0A140EFM7), for which the binding result in experiment [1] and in experiment [3] was “binds” each time. For DkWDR1 (from UniProt V9I0L4), the binding entry in experiment [3] is “no binding”.

The values are drawn from article PMC7044221.
